PubChem BioAssay AID2685 (National Center for Advancing Translational Sciences (NCATS), 2010)
The list shows a part of the results. Further columns of the screen follow, without active or inactive calls. Compounds called inactive in the main read-out are mostly missing here. Potencies come from curve fits of mixed quality, noted in brackets.

Test: qHTS Assay for Lipid Storage Modulators in Drosophila S3 Cells;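 on cell number change: cells counted by Cell Tracker Red CMTPX staining in the red channel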
Settings: BODIPY lipid droplet fluorescence, 18-24 h; for cell number change: measured here: cell count max response, cells fed with added oleic acid
How it was run: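 Drosophila S3 cells loaded with oleic acid (400 uM, as added) and compounds at several concentrations; lipid droplets imaged by 488-nm laser-scanning cytometry, 500–530 nm intensity and object ratio to cell channel. Percent activity normalized to 20 uM Triacsin C.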

[1] = measured here: cell number channel AC50, cells fed with added oleic acid
[2] = measured here: lipid fluorescence (Fed channel) AC50, cells fed with added oleic acid

Structure (SMILES) | cell number change | AC50 [1] | AC50 [2]
COc1ccc(CCN2CC(C(=O)NCCCn3nc(C)cc3C)CCC2=O)cc1 (stereo not drawn) | 65% | 29.1 µM [rising, single point] | 0.116 µM [falling, single point]
CCCCNC(=O)Nc1ccccn1 | 22.1% | 4.11 µM [rising, full curve, poor fit] | 6.51 µM [rising, single point]
CSc1oc(-c2ccco2)nc1S(=O)(=O)c1ccc(C)cc1 | -7.14% |  | 
COc1cc(S(=O)(=O)N2CCOCC2)cc(C(=O)OCC(=O)NC2CCCCC2)c1OC | 35.4% | 29.1 µM [rising, single point] | 29.1 µM [rising, single point]
CCCC12CN3CC(C)(CN(C1)C31C(=O)Nc3ccc(C)cc31)C2=O (stereo not drawn) | 13.7% |  | 7.31 µM [rising, partial curve]
CCC(C)[C@H](NC(=O)Nc1cccc(OC)c1)C(=O)OC (stereo partly drawn) | -5.77% |  | 0.116 µM [falling, single point]
CCOc1ccc(/C=N/NC(=O)c2cc(-c3ccco3)nc3ccccc23)cc1 | -55.3% | 29.1 µM [falling, single point] | 
CC1=CC(C)(C)N2C(=O)C3(C(C#N)=C(N)Oc4cc(O)ccc43)c3c(C)c(C)cc1c32 (stereo not drawn) | -46.3% | 29.1 µM [falling, single point] | 
O=C(NC(=S)Nc1ccc(N2CCOCC2)c(Cl)c1)c1cccs1 | -14.1% |  | 0.231 µM [falling, full curve, poor fit]
N#Cc1cnn(-c2nc3sc4c(c3c(=O)[nH]2)CCCC4)c1N | -31.6% | 0.731 µM [falling, full curve] | 18.4 µM [falling, partial curve]
O=C1NC2(CCC3(CC2)OCCO3)NN1c1ccc(Cl)cc1 | 62.6% | 29.1 µM [rising, single point] | 
CN1CCN(C(=O)c2ccccc2-c2nc(-c3ccccc3)no2)CC1 | 42.4% | 29.1 µM [rising, single point] | 0.517 µM [falling, partial curve, poor fit]
CCN(CC)C(=O)NCc1c(C)cc(C)cc1C | 3.54% |  | 
CCOC(=O)c1[nH]c2ccccc2c1NC(=O)COC | 15.5% | 4.11 µM [rising, single point] | 0.103 µM [falling, single point]
CCOC(=O)C1=C(C)NC2=C(C(=O)C(C(=O)OCC)C(c3ccco3)C2)C1c1ccccn1 (stereo not drawn) | 3.7% |  | 5.8 µM [rising, partial curve]
COc1ccc(C(=O)Oc2cccc(/C=N/NC(N)=S)c2)cc1 | 15.3% |  | 6.51 µM [falling, single point]
COc1cccc(NC(=O)Nc2cc(NC(=O)Nc3cccc(OC)c3)c(C)nc2C)c1 | -2.97% |  | 0.651 µM [falling, single point]
C=CCC(C)(NCc1ccccc1)c1ccccc1 (stereo not drawn) | -9.41% | 6.51 µM [falling, single point] | 3.26 µM [falling, single point]
CCCOC(=O)Nc1nnc(CCC)s1 | 23.6% |  | 

Structure (SMILES) | cell number change | AC50 [1] | AC50 [2]
CC(C)c1ccccc1OCCCCCNCCO |  |  | 14.6 µM [falling, single point]
CC(NC(=O)COC(=O)c1ccco1)c1ccccc1 (stereo not drawn) | 16.3% | 2.06 µM [falling, partial curve, poor fit] | 1.03 µM [falling, partial curve]
CCN(CC(=O)Nc1ccc(NC(C)=O)cc1)C(=O)c1ccc(COc2ccccc2)o1 | -17.7% |  | 4.11 µM [falling, partial curve]
COC(=O)CC(NC(=O)c1ccc(C)cc1)c1ccccc1 (stereo not drawn) | 33.1% | 29.1 µM [rising, single point] | 
CCC(=O)Nc1ccc(-c2ccc(N3CCC(C)CC3)nn2)cc1 | -26.1% |  | 3.66 µM [rising, single point]
CCCCn1c(N)c(N(CCOC)C(=O)c2ccc(N3CCCC3)c([N+](=O)[O-])c2)c(=O)[nH]c1=O | -17.8% | 0.13 µM [falling, full curve, poor fit] | 
CSCCC(NS(=O)(=O)c1ccc2c(c1)OCCO2)C(=O)N(C)Cc1ccc(F)cc1 (stereo not drawn) | 13.3% |  | 0.0184 µM [rising, single point]
Cc1ccc(S(=O)(=O)NCCC2=CCCCC2)cc1 | 32.7% | 14.6 µM [rising, single point] | 
CC(C)c1ccc(CN2CCN(C(=O)CCl)CC2)cc1 | 6.97% |  | 
Nc1ncnc2c1nc(N1CCCCC1)n2[C@@H]1O[C@H](CO)[C@@H](O)[C@H]1O | 12% |  | 0.00411 µM [falling, full curve, poor fit]
O=C(NNc1c2ccccc2nc2ccccc12)c1ccccc1Cl | -20.2% |  | 
O=C(c1cc2cc(Br)ccc2oc1=O)N1CCCC1 | -79.4% | 25.9 µM [falling, partial curve] | 0.206 µM [falling, full curve, poor fit]
COc1ccc(O)c(/C=N/NC(=S)NCCc2ccccc2)c1 | -4.05% |  | 
Cc1nn(CC(=O)O)c(C)c1NC(=O)c1cccs1 | 18.3% |  | 
O=C(c1ccc(S(=O)(=O)N2CCCCC2)cc1)c1nnc(-c2ccc(Cl)cc2)o1 | -37.3% | 0.731 µM [falling, full curve] | 29.1 µM [falling, single point]
CCOC(=O)/C=C/C(=O)OCC(=O)Nc1cccc(Cl)c1Cl | -24.3% | 0.00461 µM [rising, full curve, poor fit] | 
Clc1ccc(-n2nnnc2-c2cnc(-c3ccccn3)nc2-c2cccs2)cc1 | -25.9% |  | 
CN(C)c1nc(SCCOC(=O)COc2ccc(Cl)cc2Cl)nc(N(C)C)n1 | 11.9% | 0.164 µM [falling, full curve, poor fit] | 0.146 µM [falling, full curve, poor fit]
CN1C(=O)c2ccc(NC(=O)c3ccc(Cl)cc3Cl)cc2C1=O | -5.9% |  | 29.1 µM [falling, single point]

One compound at a time (already shown):
CCCCNC(=O)Nc1ccccn1 is listed with cell number change: 22.1%; AC50 [1]: 4.11 µM [rising, full curve, poor fit]; AC50 [2]: 6.51 µM [rising, single point]
CN(C)c1nc(SCCOC(=O)COc2ccc(Cl)cc2Cl)nc(N(C)C)n1 is listed with cell number change: 11.9%; AC50 [1]: 0.164 µM [falling, full curve, poor fit]; AC50 [2]: 0.146 µM [falling, full curve, poor fit]
